Data on 23 targets can be found in the supplement of paper PMC10849652.

Amino acid sequences for entries named in this document (tags omitted). A change or cut given only in a name is not applied to a line headed by its entry.
UniProt Q14126: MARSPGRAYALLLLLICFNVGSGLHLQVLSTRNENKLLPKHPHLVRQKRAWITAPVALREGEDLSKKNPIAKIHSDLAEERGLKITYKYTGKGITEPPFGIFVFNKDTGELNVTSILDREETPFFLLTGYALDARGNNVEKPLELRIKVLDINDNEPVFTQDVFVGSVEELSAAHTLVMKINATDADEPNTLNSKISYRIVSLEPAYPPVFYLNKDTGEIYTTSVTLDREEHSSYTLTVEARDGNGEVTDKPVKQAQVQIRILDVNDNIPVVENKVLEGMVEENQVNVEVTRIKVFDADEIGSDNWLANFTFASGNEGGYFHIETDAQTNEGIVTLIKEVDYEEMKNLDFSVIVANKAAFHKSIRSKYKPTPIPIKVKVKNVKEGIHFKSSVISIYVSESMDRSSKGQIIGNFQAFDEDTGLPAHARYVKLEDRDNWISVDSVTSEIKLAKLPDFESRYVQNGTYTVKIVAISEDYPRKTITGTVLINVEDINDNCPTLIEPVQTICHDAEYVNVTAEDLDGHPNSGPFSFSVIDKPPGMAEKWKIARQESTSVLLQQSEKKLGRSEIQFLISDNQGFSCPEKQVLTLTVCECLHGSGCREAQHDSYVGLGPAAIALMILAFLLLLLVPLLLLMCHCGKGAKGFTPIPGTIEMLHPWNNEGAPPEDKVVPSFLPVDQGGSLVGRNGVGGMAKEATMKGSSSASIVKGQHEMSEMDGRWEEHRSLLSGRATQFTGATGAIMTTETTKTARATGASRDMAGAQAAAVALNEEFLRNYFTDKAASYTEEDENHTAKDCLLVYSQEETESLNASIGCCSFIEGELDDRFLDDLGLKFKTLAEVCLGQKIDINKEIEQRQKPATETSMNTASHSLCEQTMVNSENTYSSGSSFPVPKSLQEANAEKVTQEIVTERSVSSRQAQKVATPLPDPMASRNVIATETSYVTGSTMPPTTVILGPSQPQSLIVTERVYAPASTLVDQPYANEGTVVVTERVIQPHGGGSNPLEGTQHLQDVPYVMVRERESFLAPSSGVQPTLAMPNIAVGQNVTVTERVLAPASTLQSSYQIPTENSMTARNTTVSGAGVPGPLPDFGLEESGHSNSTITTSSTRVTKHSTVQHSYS
UniProt Q9Y295: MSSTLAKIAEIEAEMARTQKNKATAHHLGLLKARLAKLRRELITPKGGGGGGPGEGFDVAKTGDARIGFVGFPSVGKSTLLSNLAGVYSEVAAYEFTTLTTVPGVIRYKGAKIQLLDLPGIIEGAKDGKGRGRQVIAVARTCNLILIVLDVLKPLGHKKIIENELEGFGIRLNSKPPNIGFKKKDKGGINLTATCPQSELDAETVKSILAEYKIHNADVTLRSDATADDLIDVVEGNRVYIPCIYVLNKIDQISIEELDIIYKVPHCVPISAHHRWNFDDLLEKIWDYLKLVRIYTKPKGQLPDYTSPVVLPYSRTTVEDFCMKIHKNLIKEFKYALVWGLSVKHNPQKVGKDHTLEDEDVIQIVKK
UniProt Q9BZ29: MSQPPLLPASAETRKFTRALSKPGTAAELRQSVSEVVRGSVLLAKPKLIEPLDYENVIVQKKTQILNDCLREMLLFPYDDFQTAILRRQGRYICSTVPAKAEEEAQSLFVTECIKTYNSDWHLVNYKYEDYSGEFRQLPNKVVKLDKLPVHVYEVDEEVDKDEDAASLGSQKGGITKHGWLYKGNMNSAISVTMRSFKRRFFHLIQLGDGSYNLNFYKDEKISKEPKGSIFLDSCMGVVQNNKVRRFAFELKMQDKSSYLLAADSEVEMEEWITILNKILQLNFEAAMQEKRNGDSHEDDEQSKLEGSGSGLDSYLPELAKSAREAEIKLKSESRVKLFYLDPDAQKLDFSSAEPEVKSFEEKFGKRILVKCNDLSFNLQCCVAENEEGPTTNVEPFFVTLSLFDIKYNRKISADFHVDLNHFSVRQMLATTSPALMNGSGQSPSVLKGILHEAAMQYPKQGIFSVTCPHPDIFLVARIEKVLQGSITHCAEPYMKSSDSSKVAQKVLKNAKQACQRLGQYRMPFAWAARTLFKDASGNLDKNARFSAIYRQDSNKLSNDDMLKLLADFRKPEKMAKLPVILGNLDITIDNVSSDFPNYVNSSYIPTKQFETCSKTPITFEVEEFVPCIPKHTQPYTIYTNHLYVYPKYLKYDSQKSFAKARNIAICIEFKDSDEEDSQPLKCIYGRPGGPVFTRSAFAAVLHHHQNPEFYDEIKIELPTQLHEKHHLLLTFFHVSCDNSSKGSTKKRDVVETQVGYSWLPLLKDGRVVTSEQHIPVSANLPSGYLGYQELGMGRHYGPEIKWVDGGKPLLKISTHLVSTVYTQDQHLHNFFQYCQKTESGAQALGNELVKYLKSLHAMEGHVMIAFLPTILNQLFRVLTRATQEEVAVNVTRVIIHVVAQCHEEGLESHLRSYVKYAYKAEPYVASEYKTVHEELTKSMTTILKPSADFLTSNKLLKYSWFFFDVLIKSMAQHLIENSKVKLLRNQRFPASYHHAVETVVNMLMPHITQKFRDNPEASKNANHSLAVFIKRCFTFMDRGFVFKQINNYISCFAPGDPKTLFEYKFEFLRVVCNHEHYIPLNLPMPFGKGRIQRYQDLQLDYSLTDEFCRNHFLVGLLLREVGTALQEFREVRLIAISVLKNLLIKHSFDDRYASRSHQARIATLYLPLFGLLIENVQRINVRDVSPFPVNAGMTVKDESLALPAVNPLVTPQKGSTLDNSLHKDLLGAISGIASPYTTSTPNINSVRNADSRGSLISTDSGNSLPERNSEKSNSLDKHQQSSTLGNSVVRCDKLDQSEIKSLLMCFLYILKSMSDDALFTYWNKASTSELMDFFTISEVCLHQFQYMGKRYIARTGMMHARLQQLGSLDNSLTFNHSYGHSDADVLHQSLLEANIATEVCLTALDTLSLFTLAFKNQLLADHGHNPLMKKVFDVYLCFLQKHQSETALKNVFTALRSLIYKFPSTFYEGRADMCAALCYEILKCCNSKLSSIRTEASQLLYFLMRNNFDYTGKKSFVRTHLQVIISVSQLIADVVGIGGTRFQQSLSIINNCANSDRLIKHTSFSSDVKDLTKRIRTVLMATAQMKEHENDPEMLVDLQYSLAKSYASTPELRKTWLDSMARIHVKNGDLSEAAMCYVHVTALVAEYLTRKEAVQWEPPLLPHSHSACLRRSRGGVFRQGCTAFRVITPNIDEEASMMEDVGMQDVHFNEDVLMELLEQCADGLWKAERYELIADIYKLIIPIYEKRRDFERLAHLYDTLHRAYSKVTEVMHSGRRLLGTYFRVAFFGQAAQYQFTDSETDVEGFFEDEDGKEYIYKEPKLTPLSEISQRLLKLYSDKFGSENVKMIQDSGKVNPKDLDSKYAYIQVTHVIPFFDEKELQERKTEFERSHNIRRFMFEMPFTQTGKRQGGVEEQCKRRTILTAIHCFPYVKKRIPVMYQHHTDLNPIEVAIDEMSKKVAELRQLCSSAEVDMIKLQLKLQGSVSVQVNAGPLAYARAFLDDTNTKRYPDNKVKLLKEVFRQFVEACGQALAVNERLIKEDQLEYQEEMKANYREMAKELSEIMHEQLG
UniProt Q02487, whole entry, looked up: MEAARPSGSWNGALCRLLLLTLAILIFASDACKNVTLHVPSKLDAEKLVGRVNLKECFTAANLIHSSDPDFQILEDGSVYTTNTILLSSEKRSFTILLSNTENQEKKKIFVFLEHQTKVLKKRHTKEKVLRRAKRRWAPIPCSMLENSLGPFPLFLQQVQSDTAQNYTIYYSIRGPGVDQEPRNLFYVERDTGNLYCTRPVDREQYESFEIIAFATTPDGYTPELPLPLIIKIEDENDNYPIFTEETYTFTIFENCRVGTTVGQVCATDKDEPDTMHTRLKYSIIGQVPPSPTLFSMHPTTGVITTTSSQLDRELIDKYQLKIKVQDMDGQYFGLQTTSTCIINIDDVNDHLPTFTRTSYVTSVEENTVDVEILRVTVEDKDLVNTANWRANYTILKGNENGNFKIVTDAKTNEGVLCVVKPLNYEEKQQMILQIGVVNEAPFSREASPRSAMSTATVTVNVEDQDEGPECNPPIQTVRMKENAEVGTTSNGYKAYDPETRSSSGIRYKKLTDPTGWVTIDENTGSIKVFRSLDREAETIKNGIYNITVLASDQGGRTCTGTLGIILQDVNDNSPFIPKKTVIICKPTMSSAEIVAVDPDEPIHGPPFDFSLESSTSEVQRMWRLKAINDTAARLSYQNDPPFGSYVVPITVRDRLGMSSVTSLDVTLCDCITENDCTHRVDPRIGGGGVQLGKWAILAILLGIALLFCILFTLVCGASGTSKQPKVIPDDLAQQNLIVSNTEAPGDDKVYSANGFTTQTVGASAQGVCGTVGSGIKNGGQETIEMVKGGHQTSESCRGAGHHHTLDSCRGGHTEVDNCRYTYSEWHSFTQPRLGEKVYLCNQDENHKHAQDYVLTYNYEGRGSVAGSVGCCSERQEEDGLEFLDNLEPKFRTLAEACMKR
UniProt Q9P2X0: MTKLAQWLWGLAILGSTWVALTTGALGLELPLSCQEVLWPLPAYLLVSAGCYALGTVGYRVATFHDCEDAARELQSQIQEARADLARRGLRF
UniProt O60762: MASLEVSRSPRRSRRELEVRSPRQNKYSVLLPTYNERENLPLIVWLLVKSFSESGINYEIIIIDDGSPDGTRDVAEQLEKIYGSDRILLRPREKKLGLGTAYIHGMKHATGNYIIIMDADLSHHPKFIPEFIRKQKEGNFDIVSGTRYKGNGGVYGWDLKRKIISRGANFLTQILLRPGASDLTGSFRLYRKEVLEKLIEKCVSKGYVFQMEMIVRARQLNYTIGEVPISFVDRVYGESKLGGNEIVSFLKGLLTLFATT
UniProt P42892: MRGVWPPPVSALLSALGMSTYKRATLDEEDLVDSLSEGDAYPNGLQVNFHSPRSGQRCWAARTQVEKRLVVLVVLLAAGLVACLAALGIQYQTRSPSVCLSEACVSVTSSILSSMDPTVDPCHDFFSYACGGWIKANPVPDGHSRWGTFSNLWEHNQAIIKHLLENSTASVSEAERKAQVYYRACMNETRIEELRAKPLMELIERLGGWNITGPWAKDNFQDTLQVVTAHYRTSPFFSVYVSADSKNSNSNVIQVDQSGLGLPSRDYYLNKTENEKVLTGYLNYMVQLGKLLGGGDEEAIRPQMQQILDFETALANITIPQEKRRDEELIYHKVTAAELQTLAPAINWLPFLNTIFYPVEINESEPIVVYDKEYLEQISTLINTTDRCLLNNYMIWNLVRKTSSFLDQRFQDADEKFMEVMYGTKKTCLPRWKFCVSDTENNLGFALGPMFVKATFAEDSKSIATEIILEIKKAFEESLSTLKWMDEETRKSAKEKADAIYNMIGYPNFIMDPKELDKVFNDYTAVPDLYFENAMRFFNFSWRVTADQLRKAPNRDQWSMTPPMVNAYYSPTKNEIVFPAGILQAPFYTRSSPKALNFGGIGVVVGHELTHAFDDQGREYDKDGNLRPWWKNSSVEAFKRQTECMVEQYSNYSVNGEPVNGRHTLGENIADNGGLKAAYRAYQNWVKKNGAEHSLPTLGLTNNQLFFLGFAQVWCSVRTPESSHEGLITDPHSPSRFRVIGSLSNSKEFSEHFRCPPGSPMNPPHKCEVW
UniProt Q92611: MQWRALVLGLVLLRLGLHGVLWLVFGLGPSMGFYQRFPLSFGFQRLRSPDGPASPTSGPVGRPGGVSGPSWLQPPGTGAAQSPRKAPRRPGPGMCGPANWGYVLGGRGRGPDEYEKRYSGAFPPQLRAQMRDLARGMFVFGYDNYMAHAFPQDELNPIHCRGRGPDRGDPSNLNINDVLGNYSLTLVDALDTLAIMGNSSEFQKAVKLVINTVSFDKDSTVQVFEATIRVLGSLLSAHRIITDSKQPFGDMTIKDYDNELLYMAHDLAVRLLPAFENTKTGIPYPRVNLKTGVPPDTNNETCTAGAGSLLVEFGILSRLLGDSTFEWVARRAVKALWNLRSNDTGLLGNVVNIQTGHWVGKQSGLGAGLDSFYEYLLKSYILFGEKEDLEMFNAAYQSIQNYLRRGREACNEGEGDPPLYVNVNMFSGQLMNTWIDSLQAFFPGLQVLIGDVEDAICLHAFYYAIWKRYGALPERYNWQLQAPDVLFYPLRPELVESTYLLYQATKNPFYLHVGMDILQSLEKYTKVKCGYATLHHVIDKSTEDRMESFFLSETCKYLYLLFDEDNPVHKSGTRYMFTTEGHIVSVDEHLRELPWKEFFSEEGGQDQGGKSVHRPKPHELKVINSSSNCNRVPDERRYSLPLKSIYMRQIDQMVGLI
UniProt Q9UDY4: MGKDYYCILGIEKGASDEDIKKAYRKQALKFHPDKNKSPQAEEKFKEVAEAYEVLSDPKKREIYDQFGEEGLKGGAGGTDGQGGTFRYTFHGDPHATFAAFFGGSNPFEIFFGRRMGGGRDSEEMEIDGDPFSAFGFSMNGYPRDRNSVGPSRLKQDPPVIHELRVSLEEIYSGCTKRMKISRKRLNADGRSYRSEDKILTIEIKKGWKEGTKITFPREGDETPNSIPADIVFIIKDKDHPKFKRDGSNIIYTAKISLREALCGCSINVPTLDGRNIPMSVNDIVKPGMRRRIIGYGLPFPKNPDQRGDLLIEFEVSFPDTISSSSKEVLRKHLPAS

The list shows a part of the results.

Compound in one test: CCCCN(Cc1ccc(C(=O)NO)cc1)C(=O)Nc1ccccc1 [Nexturastat A]
Description: log2 fold change, soluble protein after heating vs DMSO (PISA); higher = thermal stabilisation; K562 cells, 10 uM, 30 min; active = over 0.2 and 3.5 SD of the protein, either way, in both replicates (recomputed). The gist of the method: (§1)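 K562 cells at 2×10^6 cells/mL were exposed to 10 μM compound for 30 min, then aliquots were heated for 3 min across 48°C-58°C, pooled, and extracted in PBS containing 0.5% NP-40 at 4°C. The supernatant after 21,000xg for 90 min was taken as soluble protein and measured by TMTpro 16plex LC-MS/MS with channel sums equalised. Thermal stability is reported relative to control samples, with values from duplicates. Fold changes are given on a log2 scale.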
DNAJC3 (UniProt Q13217): the log2 fold change was inactive: 0.04.

Take DSG2 (UniProt Q14126): the log2 fold change was inactive: -0.027.

Turning to ECI1 (UniProt P42126), the log2 fold change is inactive: -0.064.

DRG1 (UniProt Q9Y295): the log2 fold change was inactive: 0.05.

DSTN (UniProt P60981): the log2 fold change was inactive: -0.059.

Turning to DOCK9 isoform 4 (UniProt Q9BZ29), the log2 fold change was inactive: -0.058.

As to DPH2 (UniProt Q9BQC3), the log2 fold change was inactive: -0.059.

DSC2 (UniProt Q02487): the log2 fold change was inactive: 0.045.

As for DYNC1LI1 (UniProt Q9Y6G9), the log2 fold change is inactive: 0.02.

Turning to ECM1 isoform 4 (UniProt Q16610), the log2 fold change is inactive: -0.016.

Compound in another test: CCCS(=O)(=O)Nc1ccc(F)c(C(=O)c2c[nH]c3ncc(-c4ccc(Cl)cc4)cc23)c1F [vemurafenib]
The test is described as above. The gist of the method:
as §1
For ECHDC1 (UniProt Q9NTX5), the log2 fold change was inactive: -0.021.

For the target DNAJA3 (UniProt Q96EY1), the log2 fold change is inactive: -0.012.

With DPH7 (UniProt Q9BTV6), the log2 fold change is inactive: -0.01.

For DPM3 isoform 2 (UniProt Q9P2X0), the log2 fold change was inactive: -0.13.

For EARS2 isoform 2 (UniProt Q5JPH6), the log2 fold change was inactive: 0.11.

For DST (UniProt Q03001), the log2 fold change is inactive: -0.043.

For DPM1 (UniProt O60762), the log2 fold change is inactive: 0.036.

For the target ECE1 (UniProt P42892), the log2 fold change is inactive: -0.094.

On to EDF1 (UniProt O60869), for which the log2 fold change is inactive: -0.01.

For DPY19L4 (UniProt Q7Z388), the log2 fold change was inactive: -0.045.

With DNAJB6 (UniProt O75190), the log2 fold change was inactive: -0.029.

EDEM1 (UniProt Q92611): the log2 fold change was inactive: 0.04.

On to DNAJB4 (UniProt Q9UDY4), for which the log2 fold change was inactive: 0.058.
